Our source for the binding values is patent US20140045756A1.

Results are given in words; binding and its absence hold for the method and conditions named. A result given as binding can be weak or reduced; the word gives no strength. Tags and fused reporters may be left off the sequences shown.

For assay [1], the target named is TNFR1 immobilized on the SPR sensor chip (channel 3) (Homo sapiens (Human)). Nature of the assay: SPR (SensiQ Pioneer, FastStep injection), TNFR1 immobilized.
Assay [2] addresses TNFR2 immobilized on the SPR sensor chip (channel 1) (Homo sapiens (Human)). As to the kind of experiment: SPR (SensiQ Pioneer, FastStep injection), TNFR2 immobilized.

B1: Atsttrin-α1 (Antagonist of TNF/TNFR Signaling via Targeting to TNF Receptors-α1), recombinant (designed binder)
chain: GILPQASCCEDRVHCCPHGAFCDLVHTRCITPTGTHPLAKKLPAQRTNRAVALSSSSKENATTDLLTKLPAHTVGDVKCDMEVSCPDGYTCCRLQSGAWCEQGPHQVPWMEKAPAHLSLPDPQALKRDVPCDNVSSCPSSDTCCQLTSGEWGCCPIP
On to B1, for which the binding entry in assay [1] and in assay [2] was “binds” each time.
